According to patent US20050119190A1, “Inhibitors of the blood-clotting factor xa, production thereof and use of the same” (priority 2002, published 2005):
The structures given here were assigned with low confidence; some may be wrong.

The chains behind the UniProt entries cited, without tags or fusion partners. Residues count along the entry.
UniProt P00743, 234-492 limits assumed: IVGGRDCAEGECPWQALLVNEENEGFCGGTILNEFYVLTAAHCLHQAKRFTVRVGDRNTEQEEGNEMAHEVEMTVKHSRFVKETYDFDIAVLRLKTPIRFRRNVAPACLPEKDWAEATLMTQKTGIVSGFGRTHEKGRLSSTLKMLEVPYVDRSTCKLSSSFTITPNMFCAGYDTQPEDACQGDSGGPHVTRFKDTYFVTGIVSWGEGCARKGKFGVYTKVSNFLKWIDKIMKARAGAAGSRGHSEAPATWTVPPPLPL
UniProt P00743, 41-180 partner limits assumed: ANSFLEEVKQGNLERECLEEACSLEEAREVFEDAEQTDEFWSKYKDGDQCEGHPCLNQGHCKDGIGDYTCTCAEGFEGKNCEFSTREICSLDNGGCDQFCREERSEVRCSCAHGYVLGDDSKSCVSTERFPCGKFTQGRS

Target: F Xa (bovine) (Bos taurus, UniProt P00743)
Assay: Inhibition of F Xa, Ki by the method of Dixon, chromogenic substrate Moc-D-Nle-Gly-Arg-pNA
Conditions: Example 4; inhibition of factor Xa by inhibitors of formula I

Ki: 180 nM
Structure (SMILES): COC(=O)c1cccc(CS(=O)(=O)N[C@H](COC(C)(C)C)C(=O)NCC(=O)NCc2ccc(C(=N)N)cc2)c1
